From the supplement of paper PMC7125110
± gives the standard error. Many entries were measured with a wide error.

B1: glmS ribozyme (parent)
chain: AUAAAAGCGCCAGAACUACAGAAAUGUAGUUGACGAGGAGGAGGUUUAUCGAAUUUUCGGCGGAUGCCUCCAAA

Variants of: B1
Experiment: kcat; higher = faster cleavage; RNA array
Conditions: with glucosamine-6-phosphate
Method in brief: (§1)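 Weighted Michaelis–Menten fits across concentrations supplied kcat and KM, based on kobs from one- or two-exponential decay fits to normalised per-tile medians. The data came from barcoded ribozyme variants transcribed in situ by E. coli RNA polymerase on sequenced MiSeq chips and tracked at 37 °C by a hybridised Cy3 probe. Glucosamine-6-phosphate (40 μM to 10 mM) in HEPES/KCl/Mg(OAc)2 buffer was flowed in.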
G29C C71G was tested, and the kcat was 8.64e-05 ± 1.2e-05 s⁻¹. G35U C50G gave a kcat of 3.86e-05 ± 2.3e-05 s⁻¹. A15C U30G gave a kcat of 0.0526 ± 0.032 s⁻¹. In the case of G37A A39U, the kcat is reported as 0.00167 ± 0.00028 s⁻¹. Variant C8U A36G C50A G51A C68U C70A has a kcat of 4.03e-05 ± 2e-05 s⁻¹. For U30C C50A U55G, the kcat was 3.98e-05 ± 3e-05 s⁻¹. C11G A33U showed a kcat of less than 1e-05 s⁻¹. With C16U A39U the kcat was 0.0586 ± 0.022 s⁻¹. C16U U55G was tested, and the kcat was 0.00893 ± 0.0059 s⁻¹. Work on C11U G29U G37C C70A yielded a kcat of 3.52e-05 ± 2.9e-05 s⁻¹. Work on C16U C67U yielded a kcat of 0.00415 ± 0.0027 s⁻¹. In the case of A1C, the kcat is reported as 0.0216 ± 0.011 s⁻¹. G38A U65A showed a kcat of less than 1e-05 s⁻¹. G38A G63A showed a kcat of less than 1e-05 s⁻¹. A6U A15C A48U U69G showed a kcat of 2.37e-05 ± 7.1e-06 s⁻¹. A12U A33U C67U gave a kcat of 0.000242 ± 4.7e-05 s⁻¹. A15C U65A was tested, and the kcat was 0.000715 ± 0.00038 s⁻¹. For G13U G51A, the kcat was less than 1e-05 s⁻¹. C10U C67G C68U was tested, and the kcat was 3.94e-05 ± 2.9e-05 s⁻¹. A39G G44A gave a kcat of 0.00175 ± 0.0015 s⁻¹. For U31G U49G, the kcat was 0.000191 ± 2.6e-06 s⁻¹. U30A C68G gave a kcat of 3.09e-05 ± 1.6e-05 s⁻¹. Variant A15G G62U has a kcat of 2.65e-05 ± 2.3e-05 s⁻¹. Work on C11A G62A yielded a kcat of 1.14e-05 ± 2e-06 s⁻¹. Work on C10U A53G C61A C67G yielded a kcat of 3.61e-05 ± 2.6e-05 s⁻¹. Variant G37A U47C has a kcat of 0.000634 ± 0.00022 s⁻¹. For A12C C16U U57A, the kcat was 0.000707 ± 0.00036 s⁻¹. For A14G U30A, the kcat was 0.0235 ± 0.016 s⁻¹. A14G A42G showed a kcat of 0.00853 ± 0.006 s⁻¹. A12U A36U showed a kcat of 2.03e-05 ± 6.7e-07 s⁻¹. C11U U57A gave a kcat of 1.44e-05 ± 2.1e-06 s⁻¹. With A6G A33U C58G C67U C71A the kcat was 5.76e-05 ± 3.1e-05 s⁻¹. In the case of G29U U54A, the kcat is reported as 0.00792 ± 0.0027 s⁻¹. A15G C71U was tested, and the kcat was 0.00971 ± 0.0089 s⁻¹. For G37U C50U A64C C67A, the kcat was 3.46e-05 ± 2e-05 s⁻¹. Variant G7U U55G has a kcat of 1.75e-05 ± 1.2e-05 s⁻¹. Work on A6U U45G yielded a kcat of 0.000193 ± 3.9e-05 s⁻¹. C11U G37C gave a kcat of 1.18e-05 ± 3.2e-06 s⁻¹. Variant C16U A33C has a kcat of 0.000455 ± 0.0003 s⁻¹. Work on A15G U30G yielded a kcat of 0.0106 ± 0.007 s⁻¹. U30C G38C was tested, and the kcat was less than 1e-05 s⁻¹. For U30G A39G, the kcat was 0.0174 ± 0.01 s⁻¹. Work on G29U A39U yielded a kcat of 0.00585 ± 0.003 s⁻¹. C16U C58A was tested, and the kcat was 0.00179 ± 0.0011 s⁻¹. Work on A36C U69A yielded a kcat of 4.83e-05 ± 2.6e-05 s⁻¹. Variant C16U U30G has a kcat of 0.00537 ± 0.0035 s⁻¹. For A6G A15U U56G U69G, the kcat was 0.000107 ± 6.6e-05 s⁻¹. Variant A33C G37U G38A has a kcat of 1.54e-05 ± 8.3e-06 s⁻¹. Work on G38A U49A C50A A64U U69C yielded a kcat of 1.95e-05 ± 1.8e-05 s⁻¹. With A14G U31A the kcat was 0.023 ± 0.021 s⁻¹. Variant A33U A64G has a kcat of 0.000146 ± 0.00014 s⁻¹. Work on A12U C68U yielded a kcat of 0.00908 ± 0.005 s⁻¹. A6U C16A gave a kcat of 1.85e-05 ± 5.8e-06 s⁻¹. In the case of C16G G29U C71U, the kcat is reported as 0.0096 ± 0.006 s⁻¹. Work on U31C G37A yielded a kcat of 0.000734 ± 0.00058 s⁻¹. In the case of A12C C70U, the kcat is reported as 0.0168 ± 0.0085 s⁻¹. Variant C16U U31A has a kcat of 0.0174 ± 0.01 s⁻¹. Work on C16G A42G yielded a kcat of 0.00662 ± 0.0036 s⁻¹.

Variants of: B1
Experiment: KM; higher = weaker cofactor use; RNA array
Conditions: with glucosamine-6-phosphate
Method in brief: as §1
For G29C C71G, the KM was 218 ± 160 µM. A15C U30G showed a KM of 1010 ± 800 µM. Variant G37A A39U has a KM of 3280 ± 870 µM. Work on C16U A39U yielded a KM of 9390 ± 4200 µM. C16U U55G was tested, and the KM was 904 ± 790 µM. In the case of C16U C67U, the KM is reported as 663 ± 620 µM. A1C gave a KM of 708 ± 500 µM. In the case of A12U A33U C67U, the KM is reported as 6520 ± 2600 µM. Work on A15C U65A yielded a KM of 2760 ± 2300 µM. U31G U49G gave a KM of 2140 ± 89 µM. C11A G62A showed a KM of 130 ± 120 µM. G37A U47C gave a KM of 1380 ± 810 µM. For A12C C16U U57A, the KM was 35300 ± 21000 µM. With A14G U30A the KM was 2240 ± 1900 µM. Variant A12U A36U has a KM of 2080 ± 230 µM. G29U U54A was tested, and the KM was 2360 ± 1100 µM. For A6U U45G, the KM was 33700 ± 8700 µM. A15G U30G was tested, and the KM was 2880 ± 2500 µM. Variant U30G A39G has a KM of 3490 ± 2700 µM. With G29U A39U the KM was 4390 ± 3000 µM. Work on C16U C58A yielded a KM of 9960 ± 8200 µM. Variant C16U U30G has a KM of 12700 ± 9400 µM. A12U C68U was tested, and the KM was 1540 ± 1100 µM. C16G G29U C71U was tested, and the KM was 1840 ± 1500 µM. A12C C70U showed a KM of 1900 ± 1200 µM. In the case of C16U U31A, the KM is reported as 2220 ± 1700 µM. Work on C16G A42G yielded a KM of 3620 ± 3000 µM.

Variants of: B1
Experiment: self-cleavage kobs at 640 uM GlcN6P; higher = faster cleavage; RNA array
Conditions: with glucosamine-6-phosphate
Method in brief: as §1
G35U C50G was tested, and the “self-cleavage kobs at 640 uM GlcN6P” value was 0.000637 ± 0.00041 s⁻¹. With C8U A36G C50A G51A C68U C70A the “self-cleavage kobs at 640 uM GlcN6P” value was 4.39e-05 ± 3.2e-05 s⁻¹. With A12U A33U C67U the “self-cleavage kobs at 640 uM GlcN6P” value was 2.15e-05 ± 1.2e-05 s⁻¹. With C10U C67G C68U the “self-cleavage kobs at 640 uM GlcN6P” value was 3.39e-05 ± 2.7e-05 s⁻¹. G37U C50U A64C C67A was tested, and the “self-cleavage kobs at 640 uM GlcN6P” value was 4.81e-05 ± 3.4e-05 s⁻¹. With A33U A64G the “self-cleavage kobs at 640 uM GlcN6P” value was 1.98e-05 ± 1.5e-05 s⁻¹.

Variants of: B1
Experiment: self-cleavage kobs at 10000 uM GlcN6P; higher = faster cleavage; RNA array
Conditions: with glucosamine-6-phosphate
Method in brief: as §1
G35U C50G was tested, and the “self-cleavage kobs at 10000 uM GlcN6P” value was 2.22e-05 ± 1.2e-05 s⁻¹. U30A C68G was tested, and the “self-cleavage kobs at 10000 uM GlcN6P” value was 1.64e-05 ± 1e-05 s⁻¹. With A12U A36U the “self-cleavage kobs at 10000 uM GlcN6P” value was 1.68e-05 ± 1.5e-05 s⁻¹. For C11U U57A, the “self-cleavage kobs at 10000 uM GlcN6P” value was 1.24e-05 ± 9.4e-06 s⁻¹. In the case of A6G A33U C58G C67U C71A, the “self-cleavage kobs at 10000 uM GlcN6P” value is reported as 3.03e-05 ± 1.9e-05 s⁻¹.

Variants of: B1
Experiment: self-cleavage kobs at 40 uM GlcN6P; higher = faster cleavage; RNA array
Conditions: with glucosamine-6-phosphate
Method in brief: as §1
G37A A39U was tested, and the “self-cleavage kobs at 40 uM GlcN6P” value was 2.15e-05 ± 1.3e-05 s⁻¹. In the case of C8U A36G C50A G51A C68U C70A, the “self-cleavage kobs at 40 uM GlcN6P” value is reported as 3.6e-05 ± 2.3e-05 s⁻¹. With C10U C67G C68U the “self-cleavage kobs at 40 uM GlcN6P” value was 2.54e-05 ± 2e-05 s⁻¹. For C10U A53G C61A C67G, the “self-cleavage kobs at 40 uM GlcN6P” value was 3.99e-05 ± 3.2e-05 s⁻¹. A36C U69A was tested, and the “self-cleavage kobs at 40 uM GlcN6P” value was 2.17e-05 ± 1.6e-05 s⁻¹.

Variants of: B1
Experiment: self-cleavage kobs at 160 uM GlcN6P; higher = faster cleavage; RNA array
Conditions: with glucosamine-6-phosphate
Method in brief: as §1
In the case of C8U A36G C50A G51A C68U C70A, the “self-cleavage kobs at 160 uM GlcN6P” value is reported as 2.87e-05 ± 2.5e-05 s⁻¹. In the case of A6U A15C A48U U69G, the “self-cleavage kobs at 160 uM GlcN6P” value is reported as 2.31e-05 ± 1.8e-05 s⁻¹. A39G G44A was tested, and the “self-cleavage kobs at 160 uM GlcN6P” value was 2.76e-05 ± 1.8e-05 s⁻¹. For U30A C68G, the “self-cleavage kobs at 160 uM GlcN6P” value was 3.23e-05 ± 1.6e-05 s⁻¹. In the case of A36C U69A, the “self-cleavage kobs at 160 uM GlcN6P” value is reported as 3.42e-05 ± 2e-05 s⁻¹.

Variants of: B1
Experiment: self-cleavage kobs at 2500 uM GlcN6P; higher = faster cleavage; RNA array
Conditions: with glucosamine-6-phosphate
Method in brief: as §1
A6U A15C A48U U69G was tested, and the “self-cleavage kobs at 2500 uM GlcN6P” value was 3.55e-05 ± 2.6e-05 s⁻¹. C11U U57A was tested, and the “self-cleavage kobs at 2500 uM GlcN6P” value was 1.94e-05 ± 1.5e-05 s⁻¹. For A15G U30G, the “self-cleavage kobs at 2500 uM GlcN6P” value was 0.00609 ± 0.0034 s⁻¹. A6G A15U U56G U69G was tested, and the “self-cleavage kobs at 2500 uM GlcN6P” value was 6.68e-05 ± 4.5e-05 s⁻¹. For A6U C16A, the “self-cleavage kobs at 2500 uM GlcN6P” value was 2.09e-05 ± 1.9e-05 s⁻¹. With C16G A42G the “self-cleavage kobs at 2500 uM GlcN6P” value was 0.00269 ± 0.0018 s⁻¹.
